Assay [1] has as its target T1, human CST complex (Flag-CTC1-STN1-TEN1-His6) (human) (UniProt Q2NKJ3+Q9H668+Q86WV5). In words: pull-down; 1 μM CST or CTC1Δ700N-ST (His6 on TEN1) with 1 μM RAD51, RecA or RPA, 20 min 37 °C, buffer D (35 mM Tris-HCl pH 7.5, 10% glycerol, 0.01% Igepal, 1 mM 2-mercaptoethanol) with 5 mM imidazole and 50 mM KCl; for RPA without DNA or with 2 μM 30-nt ssDNA; captured on His-Tag Dynabeads; SDS-PAGE, Coomassie; both purified.

Protein sequences, listed by entry. Tags and fused reporters are not part of them. Lines headed by an entry give the natural chain unless they say otherwise; changes in a name come on top.
UniProt Q2NKJ3: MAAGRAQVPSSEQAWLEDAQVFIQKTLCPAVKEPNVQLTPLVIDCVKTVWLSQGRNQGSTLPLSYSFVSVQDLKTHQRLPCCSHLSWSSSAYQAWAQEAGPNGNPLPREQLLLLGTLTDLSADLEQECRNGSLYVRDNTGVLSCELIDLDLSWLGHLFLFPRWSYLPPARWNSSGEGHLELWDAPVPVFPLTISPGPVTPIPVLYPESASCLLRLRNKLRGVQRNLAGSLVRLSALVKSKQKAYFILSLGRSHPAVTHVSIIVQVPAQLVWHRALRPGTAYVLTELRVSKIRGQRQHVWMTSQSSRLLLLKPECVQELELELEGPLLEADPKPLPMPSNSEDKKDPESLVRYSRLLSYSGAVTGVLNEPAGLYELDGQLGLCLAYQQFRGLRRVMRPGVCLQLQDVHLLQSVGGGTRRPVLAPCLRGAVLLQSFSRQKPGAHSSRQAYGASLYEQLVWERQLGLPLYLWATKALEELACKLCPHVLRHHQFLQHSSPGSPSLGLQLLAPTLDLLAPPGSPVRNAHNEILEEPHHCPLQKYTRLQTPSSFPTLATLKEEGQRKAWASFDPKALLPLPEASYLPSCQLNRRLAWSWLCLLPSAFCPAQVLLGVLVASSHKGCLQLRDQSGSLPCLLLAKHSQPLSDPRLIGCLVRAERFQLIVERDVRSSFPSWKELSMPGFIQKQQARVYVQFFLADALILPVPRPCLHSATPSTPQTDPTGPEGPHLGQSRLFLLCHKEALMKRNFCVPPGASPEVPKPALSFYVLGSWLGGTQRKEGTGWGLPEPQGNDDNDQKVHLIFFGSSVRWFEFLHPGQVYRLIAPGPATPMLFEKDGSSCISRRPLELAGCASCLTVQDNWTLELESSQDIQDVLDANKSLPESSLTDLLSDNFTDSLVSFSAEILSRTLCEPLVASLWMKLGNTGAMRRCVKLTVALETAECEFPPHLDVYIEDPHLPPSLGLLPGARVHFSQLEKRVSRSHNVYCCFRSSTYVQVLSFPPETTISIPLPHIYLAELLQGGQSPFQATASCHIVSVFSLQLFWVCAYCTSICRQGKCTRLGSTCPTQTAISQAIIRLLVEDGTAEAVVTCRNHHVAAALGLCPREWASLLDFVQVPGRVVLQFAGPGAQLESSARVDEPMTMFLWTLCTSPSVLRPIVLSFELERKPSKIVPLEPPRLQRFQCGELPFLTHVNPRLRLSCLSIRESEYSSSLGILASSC
UniProt Q9H668: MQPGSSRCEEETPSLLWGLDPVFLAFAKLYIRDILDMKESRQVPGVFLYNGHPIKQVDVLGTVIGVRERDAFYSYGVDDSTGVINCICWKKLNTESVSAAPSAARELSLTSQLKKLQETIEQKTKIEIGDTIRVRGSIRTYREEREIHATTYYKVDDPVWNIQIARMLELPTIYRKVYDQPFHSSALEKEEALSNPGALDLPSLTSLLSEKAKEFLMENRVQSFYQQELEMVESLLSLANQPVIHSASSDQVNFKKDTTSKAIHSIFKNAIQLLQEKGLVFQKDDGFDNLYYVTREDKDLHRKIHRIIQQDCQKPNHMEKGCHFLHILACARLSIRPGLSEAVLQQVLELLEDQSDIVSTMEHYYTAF
UniProt Q86WV5: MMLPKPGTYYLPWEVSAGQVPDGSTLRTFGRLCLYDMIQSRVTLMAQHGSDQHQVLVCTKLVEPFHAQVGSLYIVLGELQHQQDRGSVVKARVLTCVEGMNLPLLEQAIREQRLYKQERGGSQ
UniProt P0A7G6: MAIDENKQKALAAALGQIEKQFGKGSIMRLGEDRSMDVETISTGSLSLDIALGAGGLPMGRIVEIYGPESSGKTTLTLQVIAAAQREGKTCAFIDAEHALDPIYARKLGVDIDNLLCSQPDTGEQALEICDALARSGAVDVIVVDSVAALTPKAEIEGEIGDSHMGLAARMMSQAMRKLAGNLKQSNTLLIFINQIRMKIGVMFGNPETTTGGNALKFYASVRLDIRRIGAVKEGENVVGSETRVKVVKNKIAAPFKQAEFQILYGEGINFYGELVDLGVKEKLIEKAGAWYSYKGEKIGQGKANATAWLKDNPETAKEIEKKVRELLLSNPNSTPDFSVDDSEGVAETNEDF

Assay [2] has as its target T1, human CST complex (Flag-CTC1-STN1-TEN1-His6) (human). The experiment in a line: pull-down; 0.25 μM CST (Flag on CTC1) with 0.25 μM His-tagged RecA, 20 min 37 °C, buffer D with 50 mM KCl; captured on anti-FLAG M2 affinity gel, eluted with 3x Flag peptide; immunoblot with anti-His; both purified. In general terms: In western blotting, separated proteins are transferred to a membrane and probed.

No constants are given. Whether binding was seen depends on the method and setting.

For “E. coli RecA (from UniProt P0A7G6 1-353)”, the binding entry in assay [1] is reported as “no binding (tested: 1 μM)”.

Turning to “His-tagged E. coli RecA (from UniProt P0A7G6 1-353)”, the binding entry in assay [2] is given as “no binding (tested: 0.25 μM)”. Consider “human Replication protein A (RPA), recombinant heterotrimer (from UniProt P27694 1-616; P15927 1-270; P35244 1-121) (complex)”, for which the binding entry in assay [1] is on record as “no binding (tested: 1 μM)”.

The values are drawn from article PMC8571288.
